Reference: doi:10.1101/2021.01.29.428913
These are yes or no findings as the source states them, for the method shown. Binding seen in cells or lysates may run through a third protein. A result given as binding can be weak or reduced; the word gives no strength.

The chains behind the UniProt entries cited, without tags or fusion partners. Where a name states a change or a piece, a line headed by the entry shows the natural chain unless it says otherwise.
UniProt Q9W2S2: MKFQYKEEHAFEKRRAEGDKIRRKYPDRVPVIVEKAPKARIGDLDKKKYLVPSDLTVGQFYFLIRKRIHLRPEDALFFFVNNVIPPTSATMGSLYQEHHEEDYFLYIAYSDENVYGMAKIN
UniProt Q9VWX2: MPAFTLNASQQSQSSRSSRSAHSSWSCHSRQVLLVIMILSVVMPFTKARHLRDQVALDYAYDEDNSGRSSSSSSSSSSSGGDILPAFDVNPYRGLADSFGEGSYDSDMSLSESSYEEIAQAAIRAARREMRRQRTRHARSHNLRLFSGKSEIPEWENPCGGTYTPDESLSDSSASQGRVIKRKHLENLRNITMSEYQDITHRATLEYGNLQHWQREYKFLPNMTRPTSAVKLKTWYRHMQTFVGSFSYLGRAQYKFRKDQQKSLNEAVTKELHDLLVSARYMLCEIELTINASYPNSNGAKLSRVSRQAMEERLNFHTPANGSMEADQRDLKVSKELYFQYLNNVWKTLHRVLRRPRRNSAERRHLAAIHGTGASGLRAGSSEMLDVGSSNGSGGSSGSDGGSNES

Target: Atg8-Myc (Drosophila melanogaster) (UniProt Q9W2S2)
Experiment: co-IP

## Upd2-WT::GFP (from UniProt Q9VWX2)
  binding: binds
